Values joined by “and” are separate entries in the source; they are usually repeats but may differ in a detail not shown here. Identical values can stand only once. The campaign covered roughly 400,000 compounds. About 3,700 (0.93%) were called active. This list was built around the results that the source calls inconclusive (neither active nor inactive); the mix of calls is not that of the screen. Calls come from the whole dose curve; as a rule, active = well fitted inhibition curve with a large enough effect; inconclusive = small, poorly fitted or top-dose-only effect, or another doubt; inactive = no such curve, though single readings can be large or run the other way. Potencies of inconclusive entries are doubtful fits and often do not repeat.
These molecules were tested against Vitamin D3 receptor (Homo sapiens) (UniProt P11473) (assay: Inhibitors of the vitamin D receptor (VDR): qHTS). Settings: VDR-SRC2-3 peptide fluorescence polarization, 2 h; max response, negative = inhibition: active compounds read low.
Procedure, shortened: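 FP read-out; VDR + SRC2-3 coactivator peptide; 23 nl compound by pintool; 2 h RT incubation; reagents held at 4 deg C, protected from light.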
% is set by controls: 0 for no effect and ±100 for the full control effect; potency is the fitted concentration of half-maximal effect.

Sequences of proteins named here, by UniProt entry; tags and fusion partners are left off. A change or cut given only in a name is not applied to a line headed by its entry.
UniProt P11473: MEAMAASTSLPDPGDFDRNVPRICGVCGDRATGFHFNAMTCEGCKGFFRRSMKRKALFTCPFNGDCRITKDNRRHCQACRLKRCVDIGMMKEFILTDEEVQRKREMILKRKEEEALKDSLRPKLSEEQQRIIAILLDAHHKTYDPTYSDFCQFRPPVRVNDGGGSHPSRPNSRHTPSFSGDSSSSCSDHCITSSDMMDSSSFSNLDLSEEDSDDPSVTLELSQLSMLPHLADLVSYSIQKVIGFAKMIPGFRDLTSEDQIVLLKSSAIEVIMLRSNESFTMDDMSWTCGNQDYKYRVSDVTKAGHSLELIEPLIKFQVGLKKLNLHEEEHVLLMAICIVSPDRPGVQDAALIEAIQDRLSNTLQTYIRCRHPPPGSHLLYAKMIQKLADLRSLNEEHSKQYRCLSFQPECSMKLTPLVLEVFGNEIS

Row | SMILES | max response, negative = inhibition | Potency
1 | CCC(=O)OC1C(N(C)C)CC(C)O[C@H]1O[C@H]1[C@H](C)[C@@H](O[C@H]2CC(OC)[C@@H](O)C(C)O2)[C@H](C)C(=O)O[C@@H](CC)[C@](C)(O)[C@@H](O)[C@H](C)C(=O)[C@@H](C)C[C@]1(C)O (stereo not given in full) | inactive: 4.52% | –
2 | O=C(Nc1ccc2nc(-c3ccco3)c(-c3ccco3)nc2c1)N1CCN(c2ccccn2)CC1 | – | active: 89.1 µM
3 | COc1ccccc1OCC(O)CNCc1ccc2c(c1)OCO2 (stereo not given) | inactive: -28.1% | –
4 | COc1ccc(C2/C(=C(\O)c3ccc4c(c3)OCCO4)C(=O)C(=O)N2CCCN(C)C)c(OC)c1 (stereo not given) | – | inconclusive: 100 µM [inhibitor, single point]
5 | COc1ccc(NC(=O)NCc2ccco2)c(OC)c1 | – | inconclusive: 8.91 µM [inhibitor, single point]
6 | Clc1cccc(-c2nnc(SCc3nc4ccccc4[nH]3)n2Cc2ccco2)c1 | inactive: -15.1% | –
7 | CCOc1ccccc1N(C)C(=O)CCS(=O)(=O)c1ccc2c(c1)NC(=O)C(C)S2 (stereo not given) | – | inconclusive: 39.8 µM [inhibitor, single point]
8 | COc1ccc(-c2cc(=O)n(-c3ccc([N+](=O)[O-])cc3)[nH]2)cc1 | – | inconclusive: 100 µM [inhibitor, single point]
9 | CCOC(=O)C1=NN(c2cccc(C)c2)C2(S1)SC(C(C)=O)=C(C)N2c1ccccc1 (stereo not given) | inactive: 1.93% | –
10 | Cc1c(C#N)c2ccccc2n1CC(=O)N1CCCC1 | – | inconclusive: 39.8 µM [inhibitor, partial curve]
11 | COC(=O)c1ccc(CO/N=C/c2cccc([N+](=O)[O-])c2)cc1 | inactive: 2.12% | –
12 | CC(=O)N1CCC2(CC1)CN(Cc1ccc(C#N)cc1)C2 | inactive: -9.16% | –
13 | COc1ccccc1/C=C1/C(=O)N(c2ccccc2)N=C1C | – | inconclusive: 79.4 µM [inhibitor, partial curve, poor fit]
14 | Cc1cc(C)n2nc(C(=O)OCC(=O)c3ccccc3)nc2n1 | – | inconclusive: 79.4 µM [inhibitor, single point]
15 | Cc1cc(C)n(-c2nnc(N3CCN(c4ccc(F)cc4)CC3)nn2)n1 | – | inconclusive: 22.4 µM [inhibitor, partial curve, poor fit]
16 | CCCC(=O)OC[C@@H](OC(=O)CCC)[C@@H](OC(=O)CCC)[C@H](Cn1c2nc(=O)[nH]c(=O)c-2nc2cc(C)c(C)cc21)OC(=O)CCC | – | inconclusive: 39.8 µM [inhibitor, partial curve, poor fit]
17 | COc1ccccc1NS(=O)(=O)c1cc(N)ccc1N1CCOCC1 | – | active: 79.4 µM
18 | CC1(C)C(=O)C2(C(=O)NCc3ccccc3)CCC1C2 (stereo not given) | inactive: 15.8% | –
19 | CCn1c(C)nc2cc(S(N)(=O)=O)ccc21 | – | inconclusive: 56.2 µM [inhibitor, partial curve, poor fit]
20 | Cc1nc(SCC(=O)Nc2ccc(Br)cc2)[nH]c(=O)c1Cc1ccccc1 | – | inconclusive: 100 µM [inhibitor, single point]
21 | N#Cc1cc(-c2ccccc2)nn1-c1ccccc1 | – | inconclusive: 56.2 µM [inhibitor, partial curve, poor fit]
22 | O=C(/N=C1\NC(=O)C(F)(C(F)(F)F)S1)NC1CCCCC1 (stereo not given) | – | active: 50.1 µM

Row | SMILES | max response, negative = inhibition | Potency
23 | CSc1ccc(CNC(=O)c2cc3c(=O)n(Cc4ccco4)ccc3nc2C)cc1 | inactive: 2.42% | –
24 | CCC(c1nnc(SCC(=O)N2CC3(C)CC2CC(C)(C)C3)o1)N(C)C (stereo not given) | – | inconclusive: 28.2 µM [inhibitor, full curve, poor fit]
25 | Cc1cccc2c1NC(=O)/C2=C\C(=O)c1cccs1 | – | inconclusive: 50.1 µM [inhibitor, partial curve, poor fit]
26 | Cc1sc(N/N=C/c2cccs2)nc1-c1ccccc1 | – | inconclusive: 50.1 µM [inhibitor, partial curve, poor fit]
27 | O=C(/C=C/c1cccc(Cl)c1)NCc1ccccc1 | inactive: -2.57% | –
28 | COc1ccc(N2CCN(C(=O)c3nc(-c4ccc(Cl)cc4)n4c3CCCCC4)CC2)cc1 | inactive: 9.31% | –
29 | O=C(CSc1nnc(-c2cccc(S(=O)(=O)N3CCCC3)c2)n1-c1ccccc1)Nc1ccc(C(=O)O)cc1 | inactive: 0.113% | –
30 | CCOC(=O)c1c(-n2cnnn2)sc(C)c1C | – | inconclusive: 56.2 µM [inhibitor, partial curve, poor fit]
31 | Cc1cc(NC(=O)c2cc(C)on2)no1 | inactive: 6.82% | –
32 | CN1CCN(CCCN2c3ccccc3Sc3ccc(C(F)(F)F)cc32)CC1 | – | inconclusive: 44.7 µM [inhibitor, partial curve, poor fit] and inconclusive: 56.2 µM [inhibitor, partial curve, poor fit]
33 | Cc1noc(C)c1COc1ccccc1C(=O)N1CCN(S(=O)(=O)c2cccc(Cl)c2)CC1 | – | inconclusive: 79.4 µM [inhibitor, partial curve, poor fit]
34 | COc1ccc(S(=O)(=O)N(C)CC(=O)N2CCCCCC2)cc1 | – | inconclusive: 70.8 µM [inhibitor, single point]
35 | COc1ccc(C(=O)O/N=C/c2ccc(S(=O)(=O)c3ccc(Cl)cc3)nc2)cc1 | inactive: 0.116% | –
36 | CCCc1nc2oc3c(NCCOCCO)ncnc3c2c2c1COC(C)(C)C2 | inactive: -23.4% | –
37 | CCOC(=O)C1=C(C)N=c2s/c(=C\c3ccc(OCC(=O)O)cc3)c(=O)n2C1c1ccc(Cl)cc1 (stereo not given) | – | active: 79.4 µM
38 | CCOC(=O)CC(=O)CSc1nc(-c2cccnc2)cc(C)c1C#N | inactive: -1.4% | –
39 | COc1ccccc1-c1cncnc1NCc1cnc(C)cn1 | – | inconclusive: 25.1 µM [inhibitor, partial curve, poor fit]
40 | O=C1c2sc3nc4n(c(=O)c3c2CCC1Br)CCCCC4 (stereo not given) | – | inconclusive: 89.1 µM [inhibitor, single point]
41 | COC(=O)c1ccc(N2C(=O)CC(SCC(=O)Nc3ccc(OC)cc3)C2=O)cc1 (stereo not given) | – | inconclusive: 89.1 µM [inhibitor, single point]
42 | Cc1cnc(CNc2ncnc3ccc(-c4ccoc4)cc23)cn1 | – | inconclusive: 44.7 µM [inhibitor, partial curve]
43 | COc1ccc(NC(=O)CCc2nnc3ccc(N4CCC(C)CC4)nn23)cc1 | inactive: -0.842% | –
44 | CCC1Cc2cc(O)ccc2C2=C1c1ccc(O)cc1CC2CC (stereo not given) | – | inconclusive: 31.6 µM [inhibitor, partial curve]

Row | SMILES | max response, negative = inhibition | Potency
45 | Cc1cccc(C2=NN(c3ccccc3)[C@H](CO)[C@H]2c2ccc(Cl)cc2)c1 | – | inconclusive: 89.1 µM [inhibitor, partial curve, poor fit]
46 | O=C(CSc1ccc(Br)cc1)NCC(c1cccs1)N1CCOCC1 (stereo not given) | – | inconclusive: 89.1 µM [inhibitor, single point]
47 | CN1C(=O)/C(=C2/C=Cc3ccccc3N2CCCS(=O)(=O)O)SC1=S | inactive: -0.444% | –
48 | CN(C)c1ccc(C(c2nnnn2CCOC(=O)Nc2ccc(Cl)cc2)N2CCOCC2)cc1 (stereo not given) | – | inconclusive: 39.8 µM [inhibitor, full curve, poor fit]
49 | COC1=C(Nc2ccc(C)cc2)C(=O)c2ccccc2C1=O | – | inconclusive: 56.2 µM [inhibitor, partial curve, poor fit]
50 | C=CCN1CCc2nc(N)sc2CC1 | – | inconclusive: 44.7 µM [inhibitor, full curve]
51 | CN(C)Cc1ccccc1-c1nccc(NCc2cccs2)n1 | inactive: 10.4% | –
52 | CCOC(=O)c1c(CSc2ccsc2)n(C)c2cc(Br)c(O)c(CN(C)C)c12 | – | inconclusive: 79.4 µM [inhibitor, partial curve, poor fit]
53 | Cc1nc2ccccc2n1CCc1nc2c3ccccc3nc(SCC(=O)Nc3ccc(C(C)C)cc3)n2n1 | inactive: 5.17% | –
54 | CC1(C)CC[C@]2(C(=O)O[C@@H]3OC(CO)[C@@H](O)[C@H](O)[C@H]3O)CC[C@]3(C)C(=CCC4[C@@]5(C)CC[C@H](O[C@@H]6OC(C(=O)O)[C@@H](O)[C@H](O)[C@H]6O)C(C)(C)C5CC[C@]43C)[C@@H]2C1 (stereo not given in full) | – | inconclusive: 89.1 µM [inhibitor, single point]
55 | COc1ccc(NC(=O)c2ccco2)cc1NC(=O)COc1ccc(C)cc1C | – | inconclusive: 89.1 µM [inhibitor, single point]
56 | O=C(Nc1ccc(S(=O)(=O)NC2=NCCCCC2)cc1)C1COc2ccccc2O1 (stereo not given) | inactive: 1.92% | –
57 | CCCOc1ccc(C(=O)C(CN2CCCC2)c2ccccc2)cc1 (stereo not given) | – | inconclusive: 70.8 µM [inhibitor, single point]
58 | O=C(Nc1cccc(S(=O)(=O)c2cccc(NC(=O)c3ccco3)c2)c1)c1ccco1 | inactive: -8.11% | –
59 | CN(Cc1ccco1)c1nc(-c2ccoc2)nc2ccccc12 | – | active: 44.7 µM
60 | O=C1CC(N2CCN(c3ccc(O)cc3)CC2)C(=O)N1c1ccc2c(c1)OCO2 (stereo not given) | inactive: 3.99% | –
61 | O=C(NCCc1ccccc1)/C(=N\O)c1ccccc1 | inactive: -19.5% | –
62 | Cc1cc(OCc2nc3ccccc3s2)ccc1N | – | inconclusive: 89.1 µM [inhibitor, single point]
63 | COc1ccc2oc(C(=O)N3CCN(S(=O)(=O)c4c(C)c(C)cc(C)c4C)CC3)c(C)c2c1 | inactive: 1.71% | –
64 | CN(Cc1ccccc1)Cc1c(O)ccc2ccccc12 | – | inconclusive: 89.1 µM [inhibitor, single point]
65 | C#CCOc1c(Br)cc(/C=C2/C(=O)ON=C2C)cc1OC | – | inconclusive: 89.1 µM [inhibitor, partial curve, poor fit]

Reference: PubChem BioAssay AID504847 (National Center for Advancing Translational Sciences (NCATS), 2011)
